{"sequences": {"note": "Protein sequences, listed by entry. Tags and fused reporters are not part of them. Lines headed by an entry give the natural chain unless they say otherwise; changes in a name come on top.", "UniProt Q9UJS0": "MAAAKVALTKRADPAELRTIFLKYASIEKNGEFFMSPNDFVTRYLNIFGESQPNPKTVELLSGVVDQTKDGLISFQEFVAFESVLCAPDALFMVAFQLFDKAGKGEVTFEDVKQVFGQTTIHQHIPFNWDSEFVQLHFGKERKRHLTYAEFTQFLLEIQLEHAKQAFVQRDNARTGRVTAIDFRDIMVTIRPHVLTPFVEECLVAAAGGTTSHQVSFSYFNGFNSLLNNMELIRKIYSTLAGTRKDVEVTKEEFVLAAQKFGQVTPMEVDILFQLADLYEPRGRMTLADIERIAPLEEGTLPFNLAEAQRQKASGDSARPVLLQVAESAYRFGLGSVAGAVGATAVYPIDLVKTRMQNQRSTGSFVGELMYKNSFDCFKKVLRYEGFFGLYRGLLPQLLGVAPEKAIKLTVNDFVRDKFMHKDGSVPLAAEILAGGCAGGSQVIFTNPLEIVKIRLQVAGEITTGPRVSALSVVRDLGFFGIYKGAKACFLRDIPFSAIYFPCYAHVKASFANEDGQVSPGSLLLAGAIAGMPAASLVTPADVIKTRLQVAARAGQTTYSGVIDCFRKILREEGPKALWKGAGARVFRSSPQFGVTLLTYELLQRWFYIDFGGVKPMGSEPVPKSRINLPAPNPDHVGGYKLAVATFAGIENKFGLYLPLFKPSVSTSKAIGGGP", "UniProt P11166": "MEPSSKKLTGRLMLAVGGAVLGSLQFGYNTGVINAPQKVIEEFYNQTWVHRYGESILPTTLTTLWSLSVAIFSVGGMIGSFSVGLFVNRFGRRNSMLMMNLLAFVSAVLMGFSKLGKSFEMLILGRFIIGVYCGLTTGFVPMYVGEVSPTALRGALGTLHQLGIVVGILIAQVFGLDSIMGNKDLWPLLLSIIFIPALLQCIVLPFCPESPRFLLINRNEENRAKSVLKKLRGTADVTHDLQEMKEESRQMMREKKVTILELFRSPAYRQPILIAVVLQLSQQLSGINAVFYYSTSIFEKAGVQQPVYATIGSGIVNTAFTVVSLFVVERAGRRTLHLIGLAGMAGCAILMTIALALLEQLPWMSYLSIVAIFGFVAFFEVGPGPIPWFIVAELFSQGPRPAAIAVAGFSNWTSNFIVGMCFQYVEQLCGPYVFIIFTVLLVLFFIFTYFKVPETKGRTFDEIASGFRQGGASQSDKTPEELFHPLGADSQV", "UniProt Q00325": "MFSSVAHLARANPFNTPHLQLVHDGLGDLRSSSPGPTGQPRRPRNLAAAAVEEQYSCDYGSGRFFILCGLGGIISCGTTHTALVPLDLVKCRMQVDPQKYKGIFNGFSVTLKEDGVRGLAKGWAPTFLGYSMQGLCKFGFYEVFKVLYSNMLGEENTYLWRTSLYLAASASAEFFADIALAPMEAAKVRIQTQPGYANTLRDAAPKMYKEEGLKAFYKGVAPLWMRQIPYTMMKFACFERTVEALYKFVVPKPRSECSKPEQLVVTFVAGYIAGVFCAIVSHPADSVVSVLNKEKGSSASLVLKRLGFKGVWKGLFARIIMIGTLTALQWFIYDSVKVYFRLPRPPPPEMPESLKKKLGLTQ", "UniProt Q8NBW4": "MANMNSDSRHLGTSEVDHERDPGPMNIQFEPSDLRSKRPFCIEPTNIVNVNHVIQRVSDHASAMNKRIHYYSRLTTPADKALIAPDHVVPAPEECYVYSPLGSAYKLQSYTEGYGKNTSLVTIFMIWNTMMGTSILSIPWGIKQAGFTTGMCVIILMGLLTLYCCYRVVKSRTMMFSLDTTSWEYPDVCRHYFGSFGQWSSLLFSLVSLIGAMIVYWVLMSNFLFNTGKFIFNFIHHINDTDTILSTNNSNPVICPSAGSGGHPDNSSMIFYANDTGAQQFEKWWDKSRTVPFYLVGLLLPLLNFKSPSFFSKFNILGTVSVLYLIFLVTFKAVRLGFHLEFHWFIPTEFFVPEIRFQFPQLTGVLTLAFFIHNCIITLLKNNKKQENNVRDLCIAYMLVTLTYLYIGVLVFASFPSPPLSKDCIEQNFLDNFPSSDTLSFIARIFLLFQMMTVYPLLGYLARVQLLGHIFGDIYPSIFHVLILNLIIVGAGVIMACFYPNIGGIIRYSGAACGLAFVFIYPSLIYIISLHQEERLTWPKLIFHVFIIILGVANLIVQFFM", "UniProt P31641": "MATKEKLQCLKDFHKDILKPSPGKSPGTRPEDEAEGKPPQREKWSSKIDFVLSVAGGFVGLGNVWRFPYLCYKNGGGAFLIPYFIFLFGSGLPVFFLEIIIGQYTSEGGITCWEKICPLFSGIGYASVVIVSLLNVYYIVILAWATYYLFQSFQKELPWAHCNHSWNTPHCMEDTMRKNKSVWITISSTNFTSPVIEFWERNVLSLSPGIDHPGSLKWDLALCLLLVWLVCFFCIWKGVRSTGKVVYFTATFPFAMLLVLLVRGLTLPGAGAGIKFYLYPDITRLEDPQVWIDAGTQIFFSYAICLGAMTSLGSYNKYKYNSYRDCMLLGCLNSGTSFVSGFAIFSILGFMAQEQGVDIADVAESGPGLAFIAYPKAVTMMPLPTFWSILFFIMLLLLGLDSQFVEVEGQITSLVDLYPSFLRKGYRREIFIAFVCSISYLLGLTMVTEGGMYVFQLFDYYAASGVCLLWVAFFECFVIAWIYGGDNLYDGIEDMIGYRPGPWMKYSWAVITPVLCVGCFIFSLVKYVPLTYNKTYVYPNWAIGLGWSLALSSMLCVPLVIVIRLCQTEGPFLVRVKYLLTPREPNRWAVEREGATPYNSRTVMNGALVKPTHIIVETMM", "UniProt Q9BQT8": "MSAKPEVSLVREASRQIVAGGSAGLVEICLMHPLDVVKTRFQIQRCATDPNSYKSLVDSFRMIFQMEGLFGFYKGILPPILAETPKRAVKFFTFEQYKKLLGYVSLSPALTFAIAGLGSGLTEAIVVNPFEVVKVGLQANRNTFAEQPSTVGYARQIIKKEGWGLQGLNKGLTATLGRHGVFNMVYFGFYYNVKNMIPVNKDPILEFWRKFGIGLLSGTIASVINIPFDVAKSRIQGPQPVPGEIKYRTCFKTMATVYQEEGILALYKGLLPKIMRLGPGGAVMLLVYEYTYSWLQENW", "UniProt O00193": "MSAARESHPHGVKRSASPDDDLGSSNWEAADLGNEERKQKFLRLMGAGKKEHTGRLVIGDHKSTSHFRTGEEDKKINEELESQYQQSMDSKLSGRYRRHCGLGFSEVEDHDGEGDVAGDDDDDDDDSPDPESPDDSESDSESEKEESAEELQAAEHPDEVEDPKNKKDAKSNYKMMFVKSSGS", "UniProt Q9Y6M7": "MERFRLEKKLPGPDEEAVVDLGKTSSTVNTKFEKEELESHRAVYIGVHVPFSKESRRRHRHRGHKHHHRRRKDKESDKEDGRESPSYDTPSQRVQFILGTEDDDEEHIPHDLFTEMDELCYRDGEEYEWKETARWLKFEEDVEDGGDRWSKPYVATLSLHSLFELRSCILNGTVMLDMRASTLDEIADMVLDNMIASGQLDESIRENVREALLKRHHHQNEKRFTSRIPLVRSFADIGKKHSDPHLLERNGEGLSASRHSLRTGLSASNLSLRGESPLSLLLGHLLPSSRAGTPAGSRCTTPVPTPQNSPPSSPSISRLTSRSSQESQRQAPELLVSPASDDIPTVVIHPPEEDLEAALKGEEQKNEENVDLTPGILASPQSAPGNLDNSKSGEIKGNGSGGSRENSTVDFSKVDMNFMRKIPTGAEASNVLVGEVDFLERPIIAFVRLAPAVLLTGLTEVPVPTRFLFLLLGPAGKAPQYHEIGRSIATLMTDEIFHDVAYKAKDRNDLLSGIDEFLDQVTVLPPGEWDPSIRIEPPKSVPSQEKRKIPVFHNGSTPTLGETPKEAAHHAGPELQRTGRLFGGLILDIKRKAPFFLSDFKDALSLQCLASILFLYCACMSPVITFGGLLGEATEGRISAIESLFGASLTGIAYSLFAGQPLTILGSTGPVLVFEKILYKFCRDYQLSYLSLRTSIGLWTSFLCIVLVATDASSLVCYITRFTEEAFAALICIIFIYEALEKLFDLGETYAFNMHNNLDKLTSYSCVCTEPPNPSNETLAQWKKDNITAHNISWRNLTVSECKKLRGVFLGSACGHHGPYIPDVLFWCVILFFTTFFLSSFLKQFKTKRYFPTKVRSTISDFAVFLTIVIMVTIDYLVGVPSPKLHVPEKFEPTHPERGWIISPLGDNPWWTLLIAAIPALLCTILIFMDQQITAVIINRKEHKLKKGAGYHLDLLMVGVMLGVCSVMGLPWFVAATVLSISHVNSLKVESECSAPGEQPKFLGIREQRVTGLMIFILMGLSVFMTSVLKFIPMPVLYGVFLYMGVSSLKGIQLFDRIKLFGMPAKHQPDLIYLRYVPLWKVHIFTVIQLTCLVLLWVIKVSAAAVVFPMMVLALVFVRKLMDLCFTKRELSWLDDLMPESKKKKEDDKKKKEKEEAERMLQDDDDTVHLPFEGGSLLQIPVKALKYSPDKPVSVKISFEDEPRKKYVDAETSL", "UniProt L0R6Q1": "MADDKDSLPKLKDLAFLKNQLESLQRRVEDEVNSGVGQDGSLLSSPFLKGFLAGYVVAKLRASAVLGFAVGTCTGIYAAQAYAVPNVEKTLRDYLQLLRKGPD", "UniProt Q13485": "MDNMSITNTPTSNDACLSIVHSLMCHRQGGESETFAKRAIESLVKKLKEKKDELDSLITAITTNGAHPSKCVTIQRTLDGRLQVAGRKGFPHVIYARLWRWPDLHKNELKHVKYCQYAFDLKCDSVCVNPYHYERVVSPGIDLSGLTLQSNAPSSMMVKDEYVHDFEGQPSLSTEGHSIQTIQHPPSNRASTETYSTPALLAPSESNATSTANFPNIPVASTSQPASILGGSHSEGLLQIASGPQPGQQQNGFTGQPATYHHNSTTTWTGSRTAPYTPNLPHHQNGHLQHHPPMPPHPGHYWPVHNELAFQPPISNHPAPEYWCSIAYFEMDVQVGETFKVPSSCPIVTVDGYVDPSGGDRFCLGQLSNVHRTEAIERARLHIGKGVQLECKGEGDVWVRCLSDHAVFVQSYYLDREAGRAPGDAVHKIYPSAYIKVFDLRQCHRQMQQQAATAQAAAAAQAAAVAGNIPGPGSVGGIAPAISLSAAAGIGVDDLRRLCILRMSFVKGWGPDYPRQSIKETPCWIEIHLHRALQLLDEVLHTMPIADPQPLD", "UniProt P48029": "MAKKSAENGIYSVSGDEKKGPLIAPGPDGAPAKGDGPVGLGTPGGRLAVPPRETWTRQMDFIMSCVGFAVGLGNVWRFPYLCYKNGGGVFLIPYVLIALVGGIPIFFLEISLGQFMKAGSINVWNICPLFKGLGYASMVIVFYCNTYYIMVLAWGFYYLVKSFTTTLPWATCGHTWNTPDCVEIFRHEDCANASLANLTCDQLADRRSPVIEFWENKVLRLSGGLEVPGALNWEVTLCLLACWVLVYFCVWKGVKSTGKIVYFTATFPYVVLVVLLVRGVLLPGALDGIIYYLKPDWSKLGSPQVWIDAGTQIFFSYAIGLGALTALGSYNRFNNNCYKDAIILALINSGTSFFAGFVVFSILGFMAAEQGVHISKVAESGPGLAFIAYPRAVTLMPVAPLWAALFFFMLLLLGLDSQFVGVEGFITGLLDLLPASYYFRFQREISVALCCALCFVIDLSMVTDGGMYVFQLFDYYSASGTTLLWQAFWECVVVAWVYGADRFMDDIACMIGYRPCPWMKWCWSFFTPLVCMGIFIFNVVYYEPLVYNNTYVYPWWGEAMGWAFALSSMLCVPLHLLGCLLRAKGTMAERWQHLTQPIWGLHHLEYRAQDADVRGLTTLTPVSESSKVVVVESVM", "UniProt Q9H0C2": "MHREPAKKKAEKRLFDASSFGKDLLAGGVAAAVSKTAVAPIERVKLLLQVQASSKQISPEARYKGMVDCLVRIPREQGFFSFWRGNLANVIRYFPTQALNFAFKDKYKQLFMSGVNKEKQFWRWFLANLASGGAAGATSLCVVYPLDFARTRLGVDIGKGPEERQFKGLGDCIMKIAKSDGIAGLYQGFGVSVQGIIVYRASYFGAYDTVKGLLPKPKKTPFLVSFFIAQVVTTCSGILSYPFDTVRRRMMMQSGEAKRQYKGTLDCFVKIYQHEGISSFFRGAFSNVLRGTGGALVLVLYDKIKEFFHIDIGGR", "UniProt Q8WU79": "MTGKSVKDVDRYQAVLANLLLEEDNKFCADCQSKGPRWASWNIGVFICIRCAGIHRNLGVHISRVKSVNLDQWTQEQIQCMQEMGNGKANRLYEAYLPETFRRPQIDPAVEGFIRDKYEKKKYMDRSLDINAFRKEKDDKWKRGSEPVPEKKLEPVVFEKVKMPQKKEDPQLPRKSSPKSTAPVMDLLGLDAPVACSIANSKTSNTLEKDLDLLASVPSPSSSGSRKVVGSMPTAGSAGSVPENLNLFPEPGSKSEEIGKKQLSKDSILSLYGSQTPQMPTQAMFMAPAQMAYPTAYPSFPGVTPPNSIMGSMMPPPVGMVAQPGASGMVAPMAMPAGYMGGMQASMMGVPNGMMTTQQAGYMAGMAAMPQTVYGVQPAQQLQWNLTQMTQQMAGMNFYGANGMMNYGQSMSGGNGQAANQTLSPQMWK"}, "source": "the supplement of paper PMC10849652", "note": "This is one part of the list.", "data": [{"compound": "CS(=O)(=O)CCNCc1ccc(-c2ccc3ncnc(Nc4ccc(OCc5cccc(F)c5)c(Cl)c4)c3c2)o1 [lapatinib]", "assay": "log2 fold change, soluble protein after heating vs DMSO (PISA); higher = thermal stabilisation; K562 lysate, 10 uM; active = over 0.2 and 3.5 SD of the protein, either way, in both replicates (recomputed)", "in_short": "(§1)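 Quantification was by TMTpro 16plex LC-MS/MS with equalised channel sums, applied to the supernatant after 21,000xg for 90 min. Samples were crude K562 extract at 1 mg/mL protein in PBS pH 7.4 with 1 mM MgCl2, treated with 10 μM compound for 30 min, heated for 3 min across 48°C-58°C, pooled and brought to 0.5% NP-40 at 4°C. Values are log-two fold changes in thermal stability relative to solvent controls, from duplicates.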", "values": [{"target": "SLIRP (UniProt Q9GZT3)", "log2 fold change": "inactive: 0.028"}, {"target": "SLC25A13 isoform 2 (UniProt Q9UJS0)", "log2 fold change": "inactive: 0.005"}, {"target": "SLC2A1 (UniProt P11166)", "log2 fold change": "inactive: -0.025"}, {"target": "SLC25A22 (UniProt Q9H936)", "log2 fold change": "inactive: 0.003"}, {"target": "SLC44A2 (UniProt Q8IWA5)", "log2 fold change": "inactive: -0.003"}, {"target": "SLC33A1 (UniProt O00400)", "log2 fold change": "inactive: -0.005"}, {"target": "SLC25A3 isoform 2 (UniProt Q00325)", "log2 fold change": "inactive: -0.022"}, {"target": "SLC38A9 (UniProt Q8NBW4)", "log2 fold change": "inactive: 0.073"}, {"target": "SLC6A6 (UniProt P31641)", "log2 fold change": "inactive: -0.02"}, {"target": "SLC30A7 (UniProt Q8NEW0)", "log2 fold change": "inactive: -0.047"}, {"target": "SLC7A5 (UniProt Q01650)", "log2 fold change": "inactive: -0.004"}, {"target": "SLC38A7 (UniProt Q9NVC3)", "log2 fold change": "inactive: 0.105"}, {"target": "SLC43A3 isoform 2 (UniProt Q8NBI5)", "log2 fold change": "inactive: -0.043"}, {"target": "SLC4A1AP (UniProt Q9BWU0)", "log2 fold change": "inactive: 0.005"}, {"target": "SLC27A2 (UniProt O14975)", "log2 fold change": "inactive: 0.063"}, {"target": "SLC36A4 (UniProt Q6YBV0)", "log2 fold change": "inactive: 0.013"}, {"target": "SLC26A6 (UniProt Q9BXS9)", "log2 fold change": "inactive: -0.009"}, {"target": "SLC25A21 (UniProt Q9BQT8)", "log2 fold change": "inactive: 0.016"}, {"target": "SLC25A4 (UniProt P12235)", "log2 fold change": "inactive: 0.01"}, {"target": "SLC38A10 (UniProt Q9HBR0)", "log2 fold change": "inactive: 0.006"}, {"target": "SLC25A42 (UniProt Q86VD7)", "log2 fold change": "inactive: 0.02"}, {"target": "SMAP (UniProt O00193)", "log2 fold change": "inactive: 0.005"}, {"target": "SLC3A2 isoform 3 (UniProt P08195)", "log2 fold change": "inactive: -0.017"}, {"target": "SLC25A25 isoform 3 (UniProt Q6KCM7)", "log2 fold change": "inactive: -0.004"}, {"target": "SLC9A1 (UniProt P19634)", "log2 fold change": "inactive: -0.065"}, {"target": "SLC4A7 isoform 7 (UniProt Q9Y6M7)", "log2 fold change": "inactive: 0.007"}, {"target": "SLC35A4 (UniProt L0R6Q1)", "log2 fold change": "inactive: 0.06"}, {"target": "SLC9A3R2 (UniProt Q15599)", "log2 fold change": "inactive: -0.038"}, {"target": "SMAD4 (UniProt Q13485)", "log2 fold change": "inactive: 0.025"}, {"target": "SLC6A8 isoform 2 (UniProt P48029)", "log2 fold change": "inactive: -0.052"}, {"target": "SLC4A2 (UniProt P04920)", "log2 fold change": "inactive: 0.008"}, {"target": "SLC30A1 (UniProt Q9Y6M5)", "log2 fold change": "inactive: -0.029"}, {"target": "SLC25A31 (UniProt Q9H0C2)", "log2 fold change": "inactive: 0.024"}, {"target": "SMAP2 (UniProt Q8WU79)", "log2 fold change": "inactive: -0.017"}, {"target": "SLC6A8 (UniProt P48029)", "log2 fold change": "inactive: -0.033"}, {"target": "SLC25A5 (UniProt P05141)", "log2 fold change": "inactive: 0.008"}, {"target": "SLC25A1 (UniProt P53007)", "log2 fold change": "inactive: -0.039"}, {"target": "SMAP1 isoform 2 (UniProt Q8IYB5)", "log2 fold change": "inactive: -0.053"}]}, {"compound": "CS(=O)(=O)N1CCN(Cc2cc3nc(-c4cccc5[nH]ncc45)nc(N4CCOCC4)c3s2)CC1 [pictilisib]", "assay": "log2 fold change, soluble protein after heating vs DMSO (PISA); higher = thermal stabilisation; K562 lysate, 10 uM; active = over 0.2 and 3.5 SD of the protein, either way, in both replicates (recomputed)", "in_short": "as §1", "values": [{"target": "SLIRP (UniProt Q9GZT3)", "log2 fold change": "inactive: 0.008"}, {"target": "SLC25A13 isoform 2 (UniProt Q9UJS0)", "log2 fold change": "inactive: -0.013"}, {"target": "SLC2A1 (UniProt P11166)", "log2 fold change": "inactive: 0.011"}, {"target": "SLC25A22 (UniProt Q9H936)", "log2 fold change": "inactive: 0.003"}, {"target": "SLC44A2 (UniProt Q8IWA5)", "log2 fold change": "inactive: 0.011"}, {"target": "SLC33A1 (UniProt O00400)", "log2 fold change": "inactive: -0.013"}, {"target": "SLC25A3 isoform 2 (UniProt Q00325)", "log2 fold change": "inactive: -0.019"}, {"target": "SLC38A9 (UniProt Q8NBW4)", "log2 fold change": "inactive: 0.069"}, {"target": "SLC6A6 (UniProt P31641)", "log2 fold change": "inactive: -0.003"}, {"target": "SLC30A7 (UniProt Q8NEW0)", "log2 fold change": "inactive: 0.008"}, {"target": "SLC7A5 (UniProt Q01650)", "log2 fold change": "inactive: 0.026"}, {"target": "SLC38A7 (UniProt Q9NVC3)", "log2 fold change": "inactive: -0.017"}, {"target": "SLC43A3 isoform 2 (UniProt Q8NBI5)", "log2 fold change": "inactive: -0.016"}, {"target": "SLC4A1AP (UniProt Q9BWU0)", "log2 fold change": "inactive: 0.004"}, {"target": "SLC27A2 (UniProt O14975)", "log2 fold change": "inactive: -0.049"}, {"target": "SLC36A4 (UniProt Q6YBV0)", "log2 fold change": "inactive: -0.214"}, {"target": "SLC26A6 (UniProt Q9BXS9)", "log2 fold change": "inactive: 0.05"}, {"target": "SLC25A21 (UniProt Q9BQT8)", "log2 fold change": "inactive: 0.017"}, {"target": "SLC25A4 (UniProt P12235)", "log2 fold change": "inactive: -0.009"}, {"target": "SLC38A10 (UniProt Q9HBR0)", "log2 fold change": "inactive: -0.069"}, {"target": "SLC25A42 (UniProt Q86VD7)", "log2 fold change": "inactive: -0.009"}, {"target": "SMAP (UniProt O00193)", "log2 fold change": "inactive: 0.008"}, {"target": "SLC3A2 isoform 3 (UniProt P08195)", "log2 fold change": "inactive: -0.005"}, {"target": "SLC25A25 isoform 3 (UniProt Q6KCM7)", "log2 fold change": "inactive: 0.021"}, {"target": "SLC9A1 (UniProt P19634)", "log2 fold change": "inactive: -0.026"}, {"target": "SLC4A7 isoform 7 (UniProt Q9Y6M7)", "log2 fold change": "inactive: -0.016"}, {"target": "SLC35A4 (UniProt L0R6Q1)", "log2 fold change": "inactive: 0.02"}, {"target": "SLC9A3R2 (UniProt Q15599)", "log2 fold change": "inactive: -0.002"}, {"target": "SMAD4 (UniProt Q13485)", "log2 fold change": "inactive: -0.017"}, {"target": "SLC6A8 isoform 2 (UniProt P48029)", "log2 fold change": "inactive: 0.006"}, {"target": "SLC4A2 (UniProt P04920)", "log2 fold change": "inactive: -0.011"}, {"target": "SLC30A1 (UniProt Q9Y6M5)", "log2 fold change": "inactive: -0.013"}, {"target": "SLC25A31 (UniProt Q9H0C2)", "log2 fold change": "inactive: -0.012"}, {"target": "SMAP2 (UniProt Q8WU79)", "log2 fold change": "inactive: -0.164"}, {"target": "SLC6A8 (UniProt P48029)", "log2 fold change": "inactive: 0.013"}, {"target": "SLC25A5 (UniProt P05141)", "log2 fold change": "inactive: 0.006"}, {"target": "SLC25A1 (UniProt P53007)", "log2 fold change": "inactive: 0.006"}, {"target": "SMAP1 isoform 2 (UniProt Q8IYB5)", "log2 fold change": "inactive: -0.011"}]}]}
